For two molecules, binding results are on record in US20210231669A1.

The target in assay [1] is T1, His-MRS (human) (UniProt P56192).
T1 sequence: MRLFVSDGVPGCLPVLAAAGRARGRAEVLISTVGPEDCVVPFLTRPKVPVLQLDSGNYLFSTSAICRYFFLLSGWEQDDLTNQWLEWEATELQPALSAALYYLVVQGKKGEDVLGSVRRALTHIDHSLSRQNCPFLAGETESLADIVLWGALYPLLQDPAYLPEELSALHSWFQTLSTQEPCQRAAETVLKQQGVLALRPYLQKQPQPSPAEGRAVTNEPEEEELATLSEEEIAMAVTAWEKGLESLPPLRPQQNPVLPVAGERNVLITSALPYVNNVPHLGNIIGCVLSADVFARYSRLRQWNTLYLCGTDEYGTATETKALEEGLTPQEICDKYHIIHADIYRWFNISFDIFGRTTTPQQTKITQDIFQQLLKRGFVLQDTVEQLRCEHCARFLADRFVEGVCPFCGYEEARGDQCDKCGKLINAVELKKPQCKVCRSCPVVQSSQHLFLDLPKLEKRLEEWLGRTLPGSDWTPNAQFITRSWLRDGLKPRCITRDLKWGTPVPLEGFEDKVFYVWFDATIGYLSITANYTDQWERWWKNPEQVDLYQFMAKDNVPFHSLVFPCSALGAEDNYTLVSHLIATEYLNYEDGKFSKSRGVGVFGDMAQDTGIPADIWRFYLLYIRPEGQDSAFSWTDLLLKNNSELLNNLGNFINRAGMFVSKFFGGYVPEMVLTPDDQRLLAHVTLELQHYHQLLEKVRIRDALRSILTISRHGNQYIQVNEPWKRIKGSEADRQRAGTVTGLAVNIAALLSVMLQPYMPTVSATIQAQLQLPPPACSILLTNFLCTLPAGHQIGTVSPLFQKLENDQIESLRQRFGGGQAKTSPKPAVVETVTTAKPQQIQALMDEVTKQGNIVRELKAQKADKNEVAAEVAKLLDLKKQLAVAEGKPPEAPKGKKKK
As to the kind of experiment: ELISA, protein coated at 1 µg/ml, antibody at 500 ng/ml, HRP anti-mouse IgG, absorbance at 450 nm.

Assay [2] addresses T1, His-MRS (human). As to the kind of experiment: ELISA, protein coated at 1 µg/ml, antibody 500 ng/ml.

These are yes or no findings as the source states them, for the method shown. Some entries that bind do so weakly or less than the wild type. Tags and fused reporters may be left off the sequences shown.

B1: 1E8 antibody (anti-MRS monoclonal antibody, whole 1E8 IgG) (antibody, V domains shown)
VH: DVKLQESGPGLVNPSQSLSLTCTVTGYSITSDYAWNWIRQFPGNKLEWMGYISYSGRTSYKSSLKSRISITRDTSKNQFFLELNSVTTEDTATYYCARDYGNFVGYFDVWGAGTTVTVSS
VL: DIVMTQSPSSLAVSVGEKVTMSCKSSQSLLYSSNQKNYLAWYQQKPGQSPKLLIYWASTRESGVPDRFTGSGSGTEFTLTISSVKAEDLAVYYCQQYYSYPTFGGGTKLEIKA
Regarding B1, the binding entry in assay [1] and in assay [2] was “binds” throughout.

B2: 8A12 antibody (anti-MRS monoclonal antibody, whole 8A12 IgG) (antibody, V domains shown)
VH: DVKLQESGPGLVKPSQSLSLTCTVTGYSITSEYAWTWIRQFPGNKLEWMGYINYNGNTNLNPSLKSRISIIRDTSKNQFFLQLNSVTTEDTATYYCARSLWPRGWFAYWGQGTLVTVSA
VL: DIQMTQSPSSMYASLGERVTITCKASQDINSYLSWFQQKPGKSPKTLMYRANRLVDGVPSRFSGSGSGQDYSLTISSLEYEDMGIYYCLQYDEFPRTFGGGTKLEIKA
Take B2: the binding result in assay [1] and in assay [2] was “binds” in each case.
